Screening data

Data taken from PubChem BioAssay AID1345084, deposited by NCATS (2018).

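A panel of named gynecologic cancer cell lines (ovarian and cervical) is scored for viability by ATP-dependent luminescence after 48 hours of compound exposure.
Each compound was tested at five concentrations, including 0.46, 2.3 and 57.5 µM as the top dose.
The number is the fitted AC50 potency, and a lower value means stronger cell killing.
Calls follow an activity score built from curve class and fitted AC50: 40 to 100 is active, 1 to 39 is inconclusive, and 0 is inactive.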

Values are in µM.
All entries here are filed as inconclusive.
Only part of the assay is shown, chiefly results filed as inconclusive.
Potencies fitted to partial, single-point or poorly fitting curves are rough.
The first word of each remark tells which way the curve ran; it can be opposite to the aim of the assay.
Activity scores are not listed here.
An entry listed twice with the same setting is a separate test.

With C=C1CC23CC1CCC2C12OC(=O)C(C)(C(O)C(O)C1O)C2C3C(=O)O (stereo not given) [SKOV3] the assay gave potency 0.2818 µM (rising, full curve, poor fit). C[C@]12CC[C@H](O)CC1=CC[C@@H]1C2CC[C@]2(C)[C@@H](C3=CC(=O)OC3)CC[C@]12O (stereo not given in full) [OV90] read potency 11.22 µM (cytotoxic, single point). C[C@]12CC[C@H](O)CC1=CC[C@@H]1C2CC[C@]2(C)[C@@H](C3=CC(=O)OC3)CC[C@]12O (stereo not given in full) [JEG-3] read potency 14.13 µM (cytotoxic, single point). Result for C[C@]12CC[C@H](O)CC1=CC[C@@H]1C2CC[C@]2(C)[C@@H](C3=CC(=O)OC3)CC[C@]12O (stereo not given in full) [C33A] was potency 7.08 µM (cytotoxic, partial curve, poor fit). For C[C@]12CC[C@H](O)CC1=CC[C@@H]1C2CC[C@]2(C)[C@@H](C3=CC(=O)OC3)CC[C@]12O (stereo not given in full) [HeLa] the result was potency 19.95 µM (cytotoxic, single point). With C[C@]12CC[C@H](O)CC1=CC[C@@H]1C2CC[C@]2(C)[C@@H](C3=CC(=O)OC3)CC[C@]12O (stereo not given in full) [CAOV3] the assay gave potency 11.22 µM (cytotoxic, partial curve, poor fit). C[C@]12CC[C@H](O)CC1=CC[C@@H]1C2CC[C@]2(C)[C@@H](C3=CC(=O)OC3)CC[C@]12O (stereo not given in full) [Hek293T; control line for the selectivity index] read potency 25.12 µM (cytotoxic, single point). With O=c1[nH]c2ccccc2n1C1CCN(CCCC(c2ccc(F)cc2)c2ccc(F)cc2)CC1 [Es-2] the assay gave potency 39.81 µM (cytotoxic, partial curve, poor fit).

O=c1[nH]c2ccccc2n1C1CCN(CCCC(c2ccc(F)cc2)c2ccc(F)cc2)CC1 [C33A] gave potency 22.39 µM (cytotoxic, partial curve, poor fit). For O=c1[nH]c2ccccc2n1C1CCN(CCCC(c2ccc(F)cc2)c2ccc(F)cc2)CC1 [CASKI] the result was potency 39.81 µM (cytotoxic, single point). Result for O=c1[nH]c2ccccc2n1C1CCN(CCCC(c2ccc(F)cc2)c2ccc(F)cc2)CC1 [CAOV3] was potency 31.62 µM (cytotoxic, single point). Result for O=c1[nH]c2ccccc2n1C1CCN(CCCC(c2ccc(F)cc2)c2ccc(F)cc2)CC1 [OV90] was potency 39.81 µM (cytotoxic, single point). O=c1[nH]c2ccccc2n1C1CCN(CCCC(c2ccc(F)cc2)c2ccc(F)cc2)CC1 [OV90] gave potency 22.39 µM (cytotoxic, partial curve, poor fit). O=c1[nH]c2ccccc2n1C1CCN(CCCC(c2ccc(F)cc2)c2ccc(F)cc2)CC1 [C33A] read potency 39.81 µM (cytotoxic, single point). O=c1[nH]c2ccccc2n1C1CCN(CCCC(c2ccc(F)cc2)c2ccc(F)cc2)CC1 [CASKI] gave potency 31.62 µM (cytotoxic, single point). Result for CC(C)(O)C1CC=C(C(=O)OC[C@H]2O[C@@H](OC(=O)C3=CCC(C(C)(C)O)CC3)[C@H](O)[C@@H](O)[C@@H]2O)CC1 (stereo not given in full) [CAOV3] was potency 1.995 µM (cytotoxic, single point).

With NC(N)=NN=C(/C=C/c1ccc([N+](=O)[O-])o1)/C=C/c1ccc([N+](=O)[O-])o1 [CASKI] the assay gave potency 25.12 µM (cytotoxic, single point). Result for CC[C@@]1(O)C(=O)OCc2c1cc1n(c2=O)Cc2cc3c(CN(C)C)c(O)ccc3nc2-1 [Es-2] was potency 1.122 µM (cytotoxic, full curve, poor fit). CC[C@@]1(O)C(=O)OCc2c1cc1n(c2=O)Cc2cc3c(CN(C)C)c(O)ccc3nc2-1 [HeLa] gave potency 10 µM (cytotoxic, partial curve, poor fit). With CC[C@@]1(O)C(=O)OCc2c1cc1n(c2=O)Cc2cc3c(CN(C)C)c(O)ccc3nc2-1 [CAOV3] the assay gave potency 0.2818 µM (cytotoxic, full curve, poor fit). CC1CCCC(SCC(O)C(=O)O)CC(=O)c2c(O)cc(O)cc2CC(=O)O1 (stereo not given) [SKOV3] gave potency 12.59 µM (cytotoxic, single point). CC1CCCC(SCC(O)C(=O)O)CC(=O)c2c(O)cc(O)cc2CC(=O)O1 (stereo not given) [CASKI] gave potency 17.78 µM (cytotoxic, single point). For CC1CCCC(SCC(O)C(=O)O)CC(=O)c2c(O)cc(O)cc2CC(=O)O1 (stereo not given) [Es-2] the result was potency 11.22 µM (cytotoxic, single point). Result for CC1CCCC(SCC(O)C(=O)O)CC(=O)c2c(O)cc(O)cc2CC(=O)O1 (stereo not given) [Hek293T; control line for the selectivity index] was potency 11.22 µM (cytotoxic, single point).

For CC1CCCC(SCC(O)C(=O)O)CC(=O)c2c(O)cc(O)cc2CC(=O)O1 (stereo not given) [C33A] the result was potency 11.22 µM (cytotoxic, partial curve, poor fit). With CC1CCCC(SCC(O)C(=O)O)CC(=O)c2c(O)cc(O)cc2CC(=O)O1 (stereo not given) [PA-1] the assay gave potency 12.59 µM (cytotoxic, single point).